No constants are given. Whether binding was seen depends on the method and setting. In cells and extracts the contact can be indirect. Some binding calls cover weakened binding; strength is not graded here. For some assays here: Sequences can lack the tags named with a protein.

By UniProt entry, the sequences of proteins in these tests, tags left out.
UniProt P19838: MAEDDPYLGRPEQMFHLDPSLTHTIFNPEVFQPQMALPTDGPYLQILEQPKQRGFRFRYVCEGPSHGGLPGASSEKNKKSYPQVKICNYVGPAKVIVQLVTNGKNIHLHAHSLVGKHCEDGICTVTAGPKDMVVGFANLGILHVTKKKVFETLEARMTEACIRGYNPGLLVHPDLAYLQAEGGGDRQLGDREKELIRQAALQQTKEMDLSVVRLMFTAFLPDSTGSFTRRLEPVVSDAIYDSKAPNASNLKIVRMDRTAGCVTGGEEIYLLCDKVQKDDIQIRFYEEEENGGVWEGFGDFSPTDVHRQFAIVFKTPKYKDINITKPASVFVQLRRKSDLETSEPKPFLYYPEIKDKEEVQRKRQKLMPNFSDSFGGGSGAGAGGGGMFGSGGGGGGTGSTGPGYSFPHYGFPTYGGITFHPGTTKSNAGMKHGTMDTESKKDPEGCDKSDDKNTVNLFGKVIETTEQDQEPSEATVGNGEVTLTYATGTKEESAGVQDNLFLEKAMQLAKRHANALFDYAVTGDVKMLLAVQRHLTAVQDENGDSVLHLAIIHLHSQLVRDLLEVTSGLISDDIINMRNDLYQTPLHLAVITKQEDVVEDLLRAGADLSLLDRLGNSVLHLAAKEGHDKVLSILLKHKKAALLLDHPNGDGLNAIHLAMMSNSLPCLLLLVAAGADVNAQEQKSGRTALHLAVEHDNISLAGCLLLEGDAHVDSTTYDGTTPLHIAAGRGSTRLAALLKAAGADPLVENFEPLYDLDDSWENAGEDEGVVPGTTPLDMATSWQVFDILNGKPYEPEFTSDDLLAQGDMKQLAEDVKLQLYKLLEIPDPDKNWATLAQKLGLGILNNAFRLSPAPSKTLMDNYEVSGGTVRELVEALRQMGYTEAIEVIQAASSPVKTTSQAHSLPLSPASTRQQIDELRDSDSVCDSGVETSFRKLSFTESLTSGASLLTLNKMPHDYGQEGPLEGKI
UniProt P0C796: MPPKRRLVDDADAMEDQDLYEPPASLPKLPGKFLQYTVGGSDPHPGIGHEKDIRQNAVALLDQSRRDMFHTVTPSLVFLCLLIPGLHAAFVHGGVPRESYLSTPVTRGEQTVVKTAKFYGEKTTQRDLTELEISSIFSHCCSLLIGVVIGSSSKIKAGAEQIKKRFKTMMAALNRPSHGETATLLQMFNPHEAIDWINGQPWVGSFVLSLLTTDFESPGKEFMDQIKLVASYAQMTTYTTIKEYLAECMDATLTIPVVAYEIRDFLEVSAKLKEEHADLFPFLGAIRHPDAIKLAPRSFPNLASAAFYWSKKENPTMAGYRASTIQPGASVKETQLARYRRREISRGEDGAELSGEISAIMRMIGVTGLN

For experiment [1], the target named is T1, FLAG-tagged NF-κB2 (human) (UniProt Q00653).
T1 sequence: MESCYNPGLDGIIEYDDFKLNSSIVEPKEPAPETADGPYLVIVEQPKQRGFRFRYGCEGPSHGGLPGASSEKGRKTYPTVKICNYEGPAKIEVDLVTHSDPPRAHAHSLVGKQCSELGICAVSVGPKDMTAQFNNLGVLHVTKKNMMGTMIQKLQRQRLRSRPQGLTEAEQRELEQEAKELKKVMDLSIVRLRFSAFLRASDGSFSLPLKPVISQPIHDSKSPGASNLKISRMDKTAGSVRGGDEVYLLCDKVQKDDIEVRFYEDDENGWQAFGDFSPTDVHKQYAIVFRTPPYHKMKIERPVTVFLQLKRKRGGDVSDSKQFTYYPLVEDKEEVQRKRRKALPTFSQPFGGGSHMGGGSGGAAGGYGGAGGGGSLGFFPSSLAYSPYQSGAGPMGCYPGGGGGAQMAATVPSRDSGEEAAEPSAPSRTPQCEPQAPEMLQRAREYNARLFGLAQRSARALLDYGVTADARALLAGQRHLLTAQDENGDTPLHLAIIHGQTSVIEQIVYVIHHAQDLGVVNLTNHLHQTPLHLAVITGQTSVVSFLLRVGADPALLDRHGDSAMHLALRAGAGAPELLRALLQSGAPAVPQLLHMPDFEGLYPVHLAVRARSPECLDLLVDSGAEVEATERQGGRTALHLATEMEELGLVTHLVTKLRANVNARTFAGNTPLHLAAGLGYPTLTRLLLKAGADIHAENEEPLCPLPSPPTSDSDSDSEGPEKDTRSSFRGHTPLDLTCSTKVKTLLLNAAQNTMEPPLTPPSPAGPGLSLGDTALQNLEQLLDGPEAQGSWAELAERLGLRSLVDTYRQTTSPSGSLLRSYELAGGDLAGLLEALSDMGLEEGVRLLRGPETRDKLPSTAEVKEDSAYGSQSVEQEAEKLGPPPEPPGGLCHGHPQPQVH
As to the kind of experiment: co-IP; lysates of separately transfected 293T cells (20 mM Tris-HCl pH 7.4, 150 mM NaCl, 1% Triton-X, 1 mM EDTA, protease inhibitors) mixed for 30 min at 4°C; immunoprecipitated with anti-FLAG M2 on Protein G Dynabeads; blotted with anti-HA and anti-FLAG.

In experiment [2] the target is FLAG-tagged NF-κB1 (human) (UniProt P19838). The experiment is described as above.

For the substance “HA-tagged BDV-N (Borna disease virus nucleoprotein) (from UniProt P0C796 1-370)”, the binding result in experiment [1] is on record as “no binding”; in experiment [2] it was “binds”.

These data come from article PMC4649702.
